Reference: paper PMC6911077
Results are given in words; binding and its absence hold for the method and conditions named. Binding seen in cells or lysates may run through a third protein. Some entries that bind do so weakly or less than the wild type. Sequences can lack the tags named with a protein.

By UniProt entry, the sequences of proteins in these tests, tags left out.
UniProt P78527: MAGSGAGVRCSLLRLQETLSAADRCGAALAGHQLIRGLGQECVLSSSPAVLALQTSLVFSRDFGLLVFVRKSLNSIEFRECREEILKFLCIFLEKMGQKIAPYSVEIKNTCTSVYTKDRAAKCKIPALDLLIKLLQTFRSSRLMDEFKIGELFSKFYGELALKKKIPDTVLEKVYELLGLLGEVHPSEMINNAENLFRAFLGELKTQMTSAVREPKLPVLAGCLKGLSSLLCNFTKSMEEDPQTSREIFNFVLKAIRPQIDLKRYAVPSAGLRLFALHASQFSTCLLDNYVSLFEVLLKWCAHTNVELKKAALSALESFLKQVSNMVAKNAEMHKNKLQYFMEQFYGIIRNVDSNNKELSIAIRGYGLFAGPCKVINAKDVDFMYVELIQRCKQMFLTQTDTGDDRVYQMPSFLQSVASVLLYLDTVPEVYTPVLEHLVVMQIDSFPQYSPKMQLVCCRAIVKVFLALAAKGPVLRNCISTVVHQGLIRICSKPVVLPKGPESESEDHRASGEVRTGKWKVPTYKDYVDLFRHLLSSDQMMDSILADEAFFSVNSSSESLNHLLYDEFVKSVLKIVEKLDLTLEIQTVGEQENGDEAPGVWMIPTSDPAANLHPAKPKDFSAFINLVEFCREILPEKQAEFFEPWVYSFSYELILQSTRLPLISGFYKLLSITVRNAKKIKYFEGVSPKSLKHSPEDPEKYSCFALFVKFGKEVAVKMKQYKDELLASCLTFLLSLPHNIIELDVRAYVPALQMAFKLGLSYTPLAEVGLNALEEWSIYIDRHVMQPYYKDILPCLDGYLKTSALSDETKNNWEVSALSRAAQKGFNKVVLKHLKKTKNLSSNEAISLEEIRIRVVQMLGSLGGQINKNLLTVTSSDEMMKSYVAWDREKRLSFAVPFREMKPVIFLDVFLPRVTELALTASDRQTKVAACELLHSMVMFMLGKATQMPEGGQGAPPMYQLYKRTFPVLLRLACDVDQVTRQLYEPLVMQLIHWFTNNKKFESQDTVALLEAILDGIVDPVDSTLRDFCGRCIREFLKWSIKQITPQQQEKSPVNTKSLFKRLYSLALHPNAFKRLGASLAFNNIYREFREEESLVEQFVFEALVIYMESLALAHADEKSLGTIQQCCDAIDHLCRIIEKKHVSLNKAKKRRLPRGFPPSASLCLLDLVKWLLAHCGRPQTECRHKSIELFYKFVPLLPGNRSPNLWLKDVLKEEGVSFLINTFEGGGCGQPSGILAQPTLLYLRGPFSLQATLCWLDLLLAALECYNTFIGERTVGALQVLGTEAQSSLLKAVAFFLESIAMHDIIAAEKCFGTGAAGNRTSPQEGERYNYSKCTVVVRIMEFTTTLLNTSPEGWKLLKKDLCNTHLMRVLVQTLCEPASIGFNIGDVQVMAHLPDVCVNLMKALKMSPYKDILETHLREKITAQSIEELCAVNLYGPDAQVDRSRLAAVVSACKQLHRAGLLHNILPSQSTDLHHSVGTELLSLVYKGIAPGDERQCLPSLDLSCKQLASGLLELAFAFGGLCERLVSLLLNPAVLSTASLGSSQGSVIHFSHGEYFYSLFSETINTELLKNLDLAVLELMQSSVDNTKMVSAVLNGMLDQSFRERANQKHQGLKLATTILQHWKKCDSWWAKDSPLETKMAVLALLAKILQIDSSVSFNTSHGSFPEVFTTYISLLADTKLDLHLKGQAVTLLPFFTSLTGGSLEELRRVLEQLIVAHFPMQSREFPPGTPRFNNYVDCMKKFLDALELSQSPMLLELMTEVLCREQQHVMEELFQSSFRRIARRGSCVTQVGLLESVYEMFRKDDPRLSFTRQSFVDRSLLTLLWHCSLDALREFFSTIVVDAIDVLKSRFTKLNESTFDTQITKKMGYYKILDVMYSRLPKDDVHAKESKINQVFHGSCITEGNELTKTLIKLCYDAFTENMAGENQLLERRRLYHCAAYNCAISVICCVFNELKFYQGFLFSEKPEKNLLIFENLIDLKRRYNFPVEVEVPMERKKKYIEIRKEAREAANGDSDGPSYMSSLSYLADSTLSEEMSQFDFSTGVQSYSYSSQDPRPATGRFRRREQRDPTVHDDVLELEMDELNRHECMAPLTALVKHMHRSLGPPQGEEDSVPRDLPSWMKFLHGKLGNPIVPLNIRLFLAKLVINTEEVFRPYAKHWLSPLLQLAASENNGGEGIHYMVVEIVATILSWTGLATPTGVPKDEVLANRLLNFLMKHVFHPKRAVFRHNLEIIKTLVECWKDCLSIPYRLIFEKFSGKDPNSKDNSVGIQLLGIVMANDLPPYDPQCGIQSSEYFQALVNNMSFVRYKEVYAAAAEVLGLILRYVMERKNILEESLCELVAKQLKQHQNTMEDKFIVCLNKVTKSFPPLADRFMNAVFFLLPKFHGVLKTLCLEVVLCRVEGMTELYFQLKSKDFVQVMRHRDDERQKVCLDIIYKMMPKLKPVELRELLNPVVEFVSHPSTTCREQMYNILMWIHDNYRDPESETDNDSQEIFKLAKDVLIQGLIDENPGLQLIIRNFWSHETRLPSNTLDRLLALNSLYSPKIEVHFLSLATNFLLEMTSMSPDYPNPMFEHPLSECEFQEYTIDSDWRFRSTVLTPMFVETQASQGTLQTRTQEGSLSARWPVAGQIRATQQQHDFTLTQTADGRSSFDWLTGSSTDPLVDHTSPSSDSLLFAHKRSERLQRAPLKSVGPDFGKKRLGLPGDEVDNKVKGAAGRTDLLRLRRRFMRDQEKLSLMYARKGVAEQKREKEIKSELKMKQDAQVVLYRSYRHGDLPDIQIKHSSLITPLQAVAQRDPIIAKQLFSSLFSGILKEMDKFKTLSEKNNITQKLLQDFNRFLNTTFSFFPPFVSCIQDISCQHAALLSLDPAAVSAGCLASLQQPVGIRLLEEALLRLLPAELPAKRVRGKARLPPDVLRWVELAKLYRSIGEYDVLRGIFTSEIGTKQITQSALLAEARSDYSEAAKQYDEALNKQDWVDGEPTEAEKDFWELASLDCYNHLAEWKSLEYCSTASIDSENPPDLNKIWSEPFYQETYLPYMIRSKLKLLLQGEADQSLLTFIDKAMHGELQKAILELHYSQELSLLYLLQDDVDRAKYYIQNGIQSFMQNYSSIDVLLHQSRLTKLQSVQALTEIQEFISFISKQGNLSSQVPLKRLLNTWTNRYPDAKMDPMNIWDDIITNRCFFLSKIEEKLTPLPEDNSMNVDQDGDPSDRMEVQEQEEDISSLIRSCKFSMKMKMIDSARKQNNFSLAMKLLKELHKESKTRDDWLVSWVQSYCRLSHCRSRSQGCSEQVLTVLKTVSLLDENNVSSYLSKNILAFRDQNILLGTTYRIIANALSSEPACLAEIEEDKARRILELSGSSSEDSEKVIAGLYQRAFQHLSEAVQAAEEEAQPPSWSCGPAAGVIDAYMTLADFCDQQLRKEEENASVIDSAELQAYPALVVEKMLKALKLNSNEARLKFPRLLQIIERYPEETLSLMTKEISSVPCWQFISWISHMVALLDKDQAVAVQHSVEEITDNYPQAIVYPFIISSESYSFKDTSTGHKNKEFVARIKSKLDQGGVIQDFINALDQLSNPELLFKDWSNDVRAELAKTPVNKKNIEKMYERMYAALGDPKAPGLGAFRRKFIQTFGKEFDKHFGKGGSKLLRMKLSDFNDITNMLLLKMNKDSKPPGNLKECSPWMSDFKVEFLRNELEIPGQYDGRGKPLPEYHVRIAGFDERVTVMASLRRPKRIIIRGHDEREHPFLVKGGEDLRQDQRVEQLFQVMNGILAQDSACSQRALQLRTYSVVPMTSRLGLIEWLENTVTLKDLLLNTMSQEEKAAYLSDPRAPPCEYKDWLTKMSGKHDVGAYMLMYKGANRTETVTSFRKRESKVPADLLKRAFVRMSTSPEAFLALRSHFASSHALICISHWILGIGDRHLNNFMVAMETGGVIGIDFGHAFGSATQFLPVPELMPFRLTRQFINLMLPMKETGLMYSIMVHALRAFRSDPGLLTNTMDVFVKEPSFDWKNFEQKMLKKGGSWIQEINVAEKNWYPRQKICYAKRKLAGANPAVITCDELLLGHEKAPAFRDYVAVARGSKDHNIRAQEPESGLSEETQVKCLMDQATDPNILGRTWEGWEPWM

Biological target: T1, endogenous RAP1 (human (endogenous; cell line not named for this experiment)) (UniProt Q9NYB0)
T1 sequence: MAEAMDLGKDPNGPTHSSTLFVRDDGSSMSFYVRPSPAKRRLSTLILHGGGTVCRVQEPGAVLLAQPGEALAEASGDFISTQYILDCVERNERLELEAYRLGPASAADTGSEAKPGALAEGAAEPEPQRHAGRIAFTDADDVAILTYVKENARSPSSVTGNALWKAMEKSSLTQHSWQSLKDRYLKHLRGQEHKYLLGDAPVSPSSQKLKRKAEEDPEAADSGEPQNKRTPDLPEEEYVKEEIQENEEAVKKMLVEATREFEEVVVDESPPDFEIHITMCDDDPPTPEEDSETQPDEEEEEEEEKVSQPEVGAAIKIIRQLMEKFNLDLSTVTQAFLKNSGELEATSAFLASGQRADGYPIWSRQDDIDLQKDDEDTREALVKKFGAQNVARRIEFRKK
Assay: SEC + co-IP; size exclusion chromatography of cell extracts followed by endogenous RAP1 IP and immunoblot; untreated cells, also Dox and CPT treated

binding: binds
Substance: DNA-PK (from UniProt P78527 1-4128)
